In PMC7370515:
No constants are given. Whether binding was seen depends on the method and setting. Binding seen in cells or lysates may run through a third protein. Some entries that bind do so weakly or less than the wild type.

By UniProt entry, the sequences of proteins in these tests, tags left out.
UniProt P05412: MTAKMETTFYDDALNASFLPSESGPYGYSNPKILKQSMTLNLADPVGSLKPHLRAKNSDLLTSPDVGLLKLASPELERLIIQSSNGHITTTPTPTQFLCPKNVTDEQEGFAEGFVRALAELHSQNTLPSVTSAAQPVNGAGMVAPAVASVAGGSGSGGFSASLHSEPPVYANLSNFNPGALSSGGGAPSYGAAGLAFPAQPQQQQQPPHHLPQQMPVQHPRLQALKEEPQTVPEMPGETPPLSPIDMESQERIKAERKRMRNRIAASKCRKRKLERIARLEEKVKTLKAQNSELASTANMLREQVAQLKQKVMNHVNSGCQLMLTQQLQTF
UniProt Q8IW41: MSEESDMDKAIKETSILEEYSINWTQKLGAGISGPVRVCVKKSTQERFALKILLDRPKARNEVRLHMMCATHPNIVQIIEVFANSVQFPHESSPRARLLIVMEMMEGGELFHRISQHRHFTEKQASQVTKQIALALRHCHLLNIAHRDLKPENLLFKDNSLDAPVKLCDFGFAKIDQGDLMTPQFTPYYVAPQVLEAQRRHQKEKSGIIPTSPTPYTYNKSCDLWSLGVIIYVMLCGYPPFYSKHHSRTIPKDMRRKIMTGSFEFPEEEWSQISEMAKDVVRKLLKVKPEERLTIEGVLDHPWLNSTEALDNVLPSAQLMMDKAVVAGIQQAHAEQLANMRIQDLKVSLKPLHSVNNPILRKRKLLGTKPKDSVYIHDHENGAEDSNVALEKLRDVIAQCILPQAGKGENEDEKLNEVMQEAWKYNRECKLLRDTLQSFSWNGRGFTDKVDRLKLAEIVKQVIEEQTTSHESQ

Biological target: c-Jun (human) (UniProt P05412)
Assay: co-IP; HCT116 cell lysates (1000 ug, RIPA lysis buffer with protease/phosphatase inhibitors) rotated overnight with anti-c-Jun, anti-MK5, anti-RBM4, anti-eIF4A1 IgG or rabbit IgG; Protein A/G agarose beads 4 h at 4 °C; washed three times with lysis buffer; western blot

binding: binds
Substance: MK5 (MAPK activated protein kinase 5) (from UniProt Q8IW41 1-473)
